Publication PMC8534522
These are yes or no findings as the source states them, for the method shown. In cells and extracts the contact can be indirect. Some binding calls cover weakened binding; strength is not graded here.

Protein sequences, listed by entry. Tags and fused reporters are not part of them.
UniProt O75475: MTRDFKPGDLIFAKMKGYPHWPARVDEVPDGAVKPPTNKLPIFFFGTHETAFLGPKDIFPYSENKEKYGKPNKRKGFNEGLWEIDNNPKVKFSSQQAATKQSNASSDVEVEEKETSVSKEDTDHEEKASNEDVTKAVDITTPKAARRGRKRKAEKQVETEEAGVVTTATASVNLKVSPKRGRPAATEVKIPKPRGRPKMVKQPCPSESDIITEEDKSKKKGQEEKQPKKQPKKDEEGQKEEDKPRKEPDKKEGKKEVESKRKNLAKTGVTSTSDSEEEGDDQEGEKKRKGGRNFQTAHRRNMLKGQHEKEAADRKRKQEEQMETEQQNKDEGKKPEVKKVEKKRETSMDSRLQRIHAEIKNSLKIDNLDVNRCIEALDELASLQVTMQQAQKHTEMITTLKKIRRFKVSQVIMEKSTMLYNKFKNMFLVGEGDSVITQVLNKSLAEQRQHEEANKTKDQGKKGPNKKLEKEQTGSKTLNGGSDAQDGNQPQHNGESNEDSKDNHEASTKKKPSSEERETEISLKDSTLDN

B1: menin (protein, UniProt O00255 1-610)
chain: MGLKAAQKTLFPLRSIDDVVRLFAAELGREEPDLVLLSLVLGFVEHFLAVNRVIPTNVPELTFQPSPAPDPPGGLTYFPVADLSIIAALYARFTAQIRGAVDLSLYPREGGVSSRELVKKVSDVIWNSLSRSYFKDRAHIQSLFSFITGTKLDSSGVAFAVVGACQALGLRDVHLALSEDHAWVVFGPNGEQTAEVTWHGKGNEDRRGQTVNAGVAERSWLYLKGSYMRCDRKMEVAFMVCAINPSIDLHTDSLELLQLQQKLLWLLYDLGHLERYPMALGNLADLEELEPTPGRPDPLTLYHKGIASAKTYYRDEHIYPYMYLAGYHCRNRNVREALQAWADTATVIQDYNYCREDEEIYKEFFEVANDVIPNLLKEAASLLEAGEERPGEQSQGTQSQGSALQDPECFAHLLRFYDGICKWEEGSPTPVLHVGWATFLVQSLGRFEGQVRQKVRIVSREAEAAEAEEPWGEEAREGRRRGPRRESKPEEPPPPKKPALDKGLGTGQGAVSGPPRKPPGTVAGTARGPEGGSTAQVPAPTASPPPEGPVLTFQSEKMKGMKELLVATKINSSAIKLQLTAQSQVQMKKQKVSTPSDYTLSFLKRQRKGL
B2: PogZ (protein, UniProt Q7Z3K3 1-1410)
chain: MADTDLFMECEEEELEPWQKISDVIEDSVVEDYNSVDKTTTVSVSQQPVSAPVPIAAHASVAGHLSTSTTVSSSGAQNSDSTKKTLVTLIANNNAGNPLVQQGGQPLILTQNPAPGLGTMVTQPVLRPVQVMQNANHVTSSPVASQPIFITTQGFPVRNVRPVQNAMNQVGIVLNVQQGQTVRPITLVPAPGTQFVKPTVGVPQVFSQMTPVRPGSTMPVRPTTNTFTTVIPATLTIRSTVPQSQSQQTKSTPSTSTTPTATQPTSLGQLAVQSPGQSNQTTNPKLAPSFPSPPAVSIASFVTVKRPGVTGENSNEVAKLVNTLNTIPSLGQSPGPVVVSNNSSAHGSQRTSGPESSMKVTSSIPVFDLQDGGRKICPRCNAQFRVTEALRGHMCYCCPEMVEYQKKGKSLDSEPSVPSAAKPPSPEKTAPVASTPSSTPIPALSPPTKVPEPNENVGDAVQTKLIMLVDDFYYGRDGGKVAQLTNFPKVATSFRCPHCTKRLKNNIRFMNHMKHHVELDQQNGEVDGHTICQHCYRQFSTPFQLQCHLENVHSPYESTTKCKICEWAFESEPLFLQHMKDTHKPGEMPYVCQVCQYRSSLYSEVDVHFRMIHEDTRHLLCPYCLKVFKNGNAFQQHYMRHQKRNVYHCNKCRLQFLFAKDKIEHKLQHHKTFRKPKQLEGLKPGTKVTIRASRGQPRTVPVSSNDTPPSALQEAAPLTSSMDPLPVFLYPPVQRSIQKRAVRKMSVMGRQTCLECSFEIPDFPNHFPTYVHCSLCRYSTCCSRAYANHMINNHVPRKSPKYLALFKNSVSGIKLACTSCTFVTSVGDAMAKHLVFNPSHRSSSILPRGLTWIAHSRHGQTRDRVHDRNVKNMYPPPSFPTNKAATVKSAGATPAEPEELLTPLAPALPSPASTATPPPTPTHPQALALPPLATEGAECLNVDDQDEGSPVTQEPELASGGGGSGGVGKKEQLSVKKLRVVLFALCCNTEQAAEHFRNPQRRIRRWLRRFQASQGENLEGKYLSFEAEEKLAEWVLTQREQQLPVNEETLFQKATKIGRSLEGGFKISYEWAVRFMLRHHLTPHARRAVAHTLPKDVAENAGLFIDFVQRQIHNQDLPLSMIVAIDEISLFLDTEVLSSDDRKENALQTVGTGEPWCDVVLAILADGTVLPTLVFYRGQMDQPANMPDSILLEAKESGYSDDEIMELWSTRVWQKHTACQRSKGMLVMDCHRTHLSEEVLAMLSASSTLPAVVPAGCSSKIQPLDVCIKRTVKNFLHKKWKEQAREMADTACDSDVLLQLVLVWLGEVLGVIGDCPELVQRSFLVASVLPGPDGNINSPTRNADMQEELIASLEEQLKLSGEHSESSTPRPRSSPEETIEPESLHQLFEGESETESFYGFEEADLDLMEI
B3: JPO2 (protein, UniProt Q96GN5 1-454)
chain: MELATRYQIPKEVADIFNAPSDDEEFVGFRDDVPMETLSSEESCDSFDSLESGKQQDVRFHSKYFTEELRRIFIEDTDSETEDFAGFTQSDLNGKTNPEVMVVESDLSDDGKASLVSEEEEDEEEDKATPRRSRSRRSSIGLRVAFQFPTKKLANKPDKNSSSEQLFSSARLQNEKKTILERKKDCRQVIQREDSTSESEDDSRDESQESSDALLKRTMNIKENKAMLAQLLAELNSMPDFFPVRTPTSASRKKTVRRAFSEGQITRRMNPTRSARPPEKFALENFTVSAAKFAEEFYSFRRRKTIGGKCREYRRRHRISSFRPVEDITEEDLENVAITVRDKIYDKVLGNTCHQCRQKTIDTKTVCRNQGCCGVRGQFCGPCLRNRYGEDVRSALLDPDWVCPPCRGICNCSYCRKRDGRCATGILIHLAKFYGYDNVKEYLESLQKELVEDN

What follows are binders tested against lens epithelium-derived growth factor p75 (LEDGF/p75) (human (endogenous in PC3-DR and DU145-DR)) (UniProt O75475) (assay: co-IP; endogenous proteins from whole cell lysates (500 ug, non-denaturing lysis buffer) of PC3-DR and DU145-DR cells; LEDGF/p75 precipitated with human anti-LEDGF/p75 (DFS) autoantibody sera (1:100) and Protein A/G Sepharose, 12 h at 4 °C; partners detected by immunoblot; normal human serum as negative control).

| binding | Binder |
| --- | --- |
| binds | B1 |
| binds | B2 |
| binds | B3 |
